According to patent US20250154590A1, “USE OF SET7/9 FOR DIAGNOSING AND TREATING ENDMT-RELATED DISEASE” (IBMSOL CO., LTD., priority 2021, published 2025):
At least one compound was matched to its structure with a doubt left.

How the values were obtained:
[1] = tested on: SuHx-induced pulmonary arterial hypertension rats; assay: SuHx-induced pulmonary arterial hypertension animal model; type: in vivo, rat; conditions: intraperitoneally 5 mg/kg for 2 weeks
Method: 8-Week-old male Sprague Dawley rats (specific-pathogen-free grade form SaeronBio, Republic of Korea) were used for the PAH rat model.
Semaxanib (DC Chemicals, SU5416) dissolved in DMSO and then suspended in a buffer (0.5% sodium carboxymethylcellulose, 0.5% sodium chloride, 0.4% Tween-80, and 0.9% benzyl alcohol that were dissolved in deionized water) was injected subcutaneously into the rats at 20 mg/kg. The rats were exposed to 10% 02 hypoxic conditions for 3 weeks. After the rats were restored to normoxic conditions, Cyproheptadine (Cayman) or (R)-PFI-2 (DC Chemicals) was administered. Cyproheptadine was administered intraperitoneally every day at 5 mg/kg for 2 weeks, and (R)-PFI-2 was administered subcutaneously every 2 days at 10 mg/kg for 3 weeks. A right ventricular systolic pressure (RVSP) was measured, and the rats were sacrificed.
Proteins were separated by sodium dodecyl sulfate polyacrylamide gel electrophoresis (SDS-PAGE) and transferred to a polyvinylidene difluoride membrane (Millipore). After blocking the membrane with 3% BSA dissolved in 0.2% PBS with Tween® detergent (PBST), the proteins on the membrane were reacted with the primary antibodies listed in Table 2 overnight. For immunodetection, HRP-conjugated secondary antibodies (1:4,000) were conjugated with the primary antibodies at room temperature for 1 hour (average temperature of 22° C.), and then detected using an enhanced chemiluminescence detection system (Thermo Scientific). In order to separate cytoplasmic and nuclear proteins, EpiQuik Nuclear Extraction Kit (EpiGentek) was used according to the manufacturer's instructions. Protein extracts from animal lung tissue were homogenized in RIPA buffer for 3 minutes at a frequency of 25 Hz.
The harvested animal lung tissue was embedded in paraffin blocks and cut into […] sections. The paraffin sections were deparaffinized using Histoclear for 10 minutes. In order to hydrate the sections, ethanol dissolved in pure water was used according to a concentration gradient (100%, 90%, 70%, 50%, 30%, and 0%). The tissue slides were placed in Borg Decloaker RTU antigen retrieval solution (Biocare Medical) and the sections were heated using a pressure cooker to recover antigens. When the temperature of the recovery solution was lowered, the sections were washed three times with 1×PBS for 5 minutes each, and then blocked with a blocking buffer (1% BSA and 5% goat serum dissolved in 1×PBS) at room temperature for 30 minutes. The sections were reacted with the primary antibodies at 4° C. overnight. Anti-vWF conjugated with FITC (Abcam, ab8822, 1:50), anti-α-SMA conjugated with Cy3 (Sigma Aldrich, C6198, 1:100), anti-SM22a (Abcam, ab14106, 1:130), and anti-SET7/9 (LsBio, C337450, 1:50) were used. For fluorescent staining, the sections were reacted with the secondary antibodies such as donkey anti-goat Alexa Fluor 568 (Invitrogen, 1:150 to 1:400), Goat anti-Rabbit Alexa Fluor 647 (Invitrogen, 1:150), and donkey anti-goat Alexa Fluor 568 (Invitrogen, 1:400) at room temperature for 1 hour. For color staining, after the sections were reacted with the primary antibodies overnight, the sections were reacted with Goat anti-Mouse IgG Secondary Antibody, HRP (Pierce, 1:100) for 1 hour and subjected to a color reaction using DAB staining kit (Vector, SK-4800). Hematoxylin-eosin staining was performed using staining products available from Vector. Image analysis was performed using confocal microscopes equipped with a 40× objective available from Zeiss and Leica. The co-localization effect was verified through Mander's overlap coefficient (MOC). […]
In order to confirm the effect of (R)-PFI-2 in an animal model, (R)-PFI-2 was administered subcutaneously to SuHx-induced pulmonary arterial hypertension rats at a concentration of 10 mg/kg for 3 weeks. […]

PAECs [2] = assay: Dextran permeation assay; type: cell-based, human; conditions: cyproheptadine with TGF-β2 and IL-1β; FIG. 7D
Method: PAECs were seeded at 2×10^5 cells per well in a 24-well plate equipped with a cell culture inlet (SPL, 0.4 μm). After a drug treatment, the insert was transferred to a well containing a serum-free medium (SFM), the medium in the insert was replaced with SFM containing FITC-dextran (Sigma Aldrich, FD40S, 1 mg/ml). After 10 minutes and 1 hour, a part of SFM was taken out from the plate well where dextran permeation occurred, and the fluorescence was measured. The fluorescence intensity was measured on a microplate reader (excitation, 485 nm; emission, 530 nm).

TGFβR1, SMAD2/3 = assay: TGFβR1 expression and SMAD2/3 phosphorylation in EndMT-induced pulmonary artery endothelial cells; type: cell-based, human; conditions: cyproheptadine with TGF-β2 and IL-1β; FIG. 7F
[3] = tested on: pulmonary artery endothelial cells; assay: EndMT marker expression (Western blot, qRT-PCR) in pulmonary artery endothelial cells treated with TGF-β2 and IL-1β; type: cell-based, human; conditions: PAECs treated simultaneously with cyproheptadine, TGF-β2 and IL-1β for 5 to 7 days
Method: Pulmonary arterial ECs (PAECs) and human umbilical vein ECs (HUVECs) were cultured in EGM-2 (Lonza) to which MycoZap (Lonza) and 1% penicillin-streptomycin (Welgene) were added. Human Microvascular ECs (HMVECs) were cultured in EGM-2-MV (Lonza), and Lenti-λ-293T and MCF7 cells were cultured in Dulbecco's modified Eagle medium (DMEM) (HyClone) containing 10% fetal bovine serum (FBS, HyClone), 1% penicillin-streptomycin (Welgene), and MycoZap (Lonza). All cell lines were cultured at 37° C. in a 5% CO2 incubator and cultured at 90% density.
TGF-β2 was purchased from Peprotech and dissolved in pure water containing 0.1% bovine serum albumin (BSA). IL-1β was purchased from R&D System and dissolved in 1×PBS containing 0.1% BSA. […]
In order to isolate the total RNA, miRNeasy RNA isolation kit (QIAGEN) was used. The purified RNA was reverse transcribed using qPCRBIO cDNA Synthesis Kit (PCR-BIOSYSTEMS), and real-time quantitative PCR (qRT-PCR) was performed using qPCRBIO SyGreen Mix Hi-ROX (PCR-BIOSYSTEMS) according to the manufacturer's instructions. […]
All cells were lysed in radioimmunoprecipitation assay (RIPA) buffer (Biosesang) containing protease (GenDepot) and phosphatase (Sigma Aldrich) inhibitors for 20 minutes. […] A protein concentration was measured using Pierce BCA Protein Assay Kit (Thermo Scientific), and Laemmli SDS Sample Buffer was added to an equal amount of protein and boiled. […]

PAECs [4] = assay: Dil-Ac-LDL uptake assay; type: cell-based, human; conditions: cyproheptadine with TGF-β2 and IL-1β; FIG. 7E
Method: PAECs were seeded at 2×10^5 cells per well in a 12-well plate. After a drug treatment, the cells were reacted with Dil-Ac-LDL (Invitrogen, 10 μg/ml) at 37° C. for 3 hours. After the reaction, the cells were washed four times with 1×PBS and then subjected to image analysis with a fluorescence microscope.

[5] = tested on: pulmonary artery endothelial cells; assay: Phalloidin staining of cytoskeleton change in EndMT-induced pulmonary artery endothelial cells; type: cell-based, human; conditions: cyproheptadine with TGF-β2 and IL-1β; FIG. 7C
Method: PAECs and Lenti-X-293T were immobilized with 4% formaldehyde and washed with 1×PBS. Thereafter, the cells were permeabilized with 0.2% Triton X-100 and blocked with 1% BSA dissolved in 1×PBS for 1 hour at room temperature. The cells were reacted with the following primary antibodies at 4° C. overnight: anti-VE-cadherin (Cell Signaling, 2500S, 1:100), anti-Fibronectin (BD Pharmigen, 61007, 1:100), anti-TAGLN (Abcam, ab14106, 1:200), anti-α-SMA conjugated with Cy3 (Sigma Aldrich, C6198, 1:200), anti-NF-κB p65 (Cell signaling, 8242S, 1:400), anti-SET7/9 (LsBio, C337450, 1:100), and rhodamine phalloidin (Sigma Aldrich, 1:1,000). Secondary antibodies of donkey anti-goat Alexa Fluor 488 and donkey anti-goat Alexa Fluor 568 (Invitrogen, 1:400) were reacted at room temperature for 1 hour. In order to obtain immunostaining images, a confocal microscope equipped with a 60× objective lens (Zeiss LSM-700) was used.
In order to confirm the inhibitory effect of the drug on endothelial-mesenchymal transition, a model in which pulmonary artery endothelial cells were simultaneously treated with cyproheptadine along with TGF-β2 and IL-1β for 5 to 7 days was used. […]

SMILES: CN1CCC(=C2c3ccccc3C=Cc3ccccc32)CC1 [cyproheptadine]
- SET7/9 expression in blood vessels ([1]; SuHx rat lung tissue, FIG. 8D): decrease
- area of simultaneous staining of endothelial and mesenchymal cell markers (EndMT) ([1]; SuHx rat lung tissue, FIG. 8D): decrease
- right ventricular systolic pressure (RVSP mmHg) ([1]; SuHx rats, FIG. 8A): decreased
- right ventricular weight (RV mg) ([1]; SuHx rats, FIG. 8C): decreased
- degree of muscularization of lung blood vessels (immunohistochemical staining) ([1]; SuHx rats, FIG. 8D): decreased
- expression of TGFβR1 in lung tissue ([1]; SuHx rats, FIG. 8F): decreased
- expression of mesenchymal cell markers such as N-cad and SM22α in lung tissue ([1]; SuHx rats, FIG. 8F): decreased
- expression of phosphorylated SMAD2 protein in lung tissue ([1]; SuHx rats, FIG. 8F): significantly decreased
- number of blocked or enlarged blood vessels in lung tissue (H&E staining) ([1]; compared to SuHx group, FIG. 8E): reduced
- increase in permeability caused by EndMT (PAECs [2]): restored
- degree of phosphorylation of SMAD2/3 (TGFβR1, SMAD2/3): decreased
- expression of TGFβR1 increased by EndMT induction (TGFβR1, SMAD2/3): restored
- expression of endothelial cell markers CD31, VE-cadherin and mesenchymal cell markers Fibronectin, N-cadherin, SM22a, SNAIL (Western blot) ([3]; FIG. 7A): restoration
- expression of PECAM1, CDH5, FN, CDH2, TAGLN, SNAIL (qRT-PCR) ([3]; FIG. 7B): restoration
- decrease in Dil-Ac-LDL uptake ability caused by EndMT (PAECs [4]): restored
- cytoskeleton change (phalloidin staining) [5]: decreased
